The other results are listed elsewhere or left out. The main result of the screen is listed elsewhere. These columns were measured beside it and carry no call. The list favours compounds with an active or inconclusive main result. Potencies come from curve fits of mixed quality, noted in brackets.
Test: qHTS Assay to Find Inhibitors of Chronic Active B-Cell Receptor Signaling
Conditions: ABC-DLBCL IkBa-CBG/CBR reporter, luminescence ratio (green luciferase fused to IkBa over red control in TMD8 lymphoma cells), 4 h
Method in brief: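 Cell line TMD8 (human ABC DLBCL), stably expressing tet-inducible CBG68-IkBa fusion and CBR; IMDM/0.5% FBS; cpd up to 46 uM; dox induction, 4 h, 37C/5% CO2; dual luminescence; green/red ratio; MG132 control.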

[1] = measured here: CBR red luminescence, cell number
[2] = measured here: IkBa-CBG green luminescence

## CCOc1ccccc1NC(=O)C1CC(=O)n2ncnc2N1 (centres undefined)
[1]
  AC50: 0.82 µM [rising, full curve, poor fit]

## COc1ccc(C2=NOC3(CC(=O)N(c4ccc(C)cc4)C3=O)C2)cc1 (centres undefined)
[1]
  AC50: 29.1 µM [rising, single point]

## Cn1nc(NC(=O)C(F)(F)F)c2ncc(-c3ccc(Cl)cc3)nc21
[1]
  AC50: 2.51 µM [rising, full curve, poor fit]

## CCc1nc(Nc2cccc(O)c2)c2oc3ccccc3c2n1
[1]
  AC50: 2.24 µM [falling, partial curve]

## Cc1ccc(C(=O)COC(=O)c2c(C)cc(=O)oc2C)cc1[N+](=O)[O-]
[1]
  AC50: 9.2 µM [rising, partial curve, poor fit]

## COc1ccc(CNc2nc(C)c([N+](=O)[O-])c(C)c2C#N)cc1
[1]
  AC50: 6.51 µM [rising, full curve, poor fit]

## Cc1cccc(NC(=O)Cn2nnc3sc4c(c3c2=O)CC(C)(C)OC4)c1
[1]
  AC50: 0.112 µM [rising, full curve, poor fit]

## O=C(c1ccc(F)cc1)N1CCN2C(=O)c3ccccc3C12c1ccccc1 (centres undefined)
[1]
  AC50: 25.1 µM [falling, single point]

## C=CCOc1c(Br)cc(CNc2ccc(NC(=O)C(C)C)cc2)cc1OCC
[1]
  AC50: 25.9 µM [rising, partial curve]
[2]
  AC50: 23.1 µM [falling, single point]

## CCOc1ccccc1CN1CCC(n2nccc2NC(=O)C2CCCC2)CC1
[1]
  AC50: 11.2 µM [falling, partial curve]

## Cc1nnc(NC(=O)CSc2nnc(CC(=O)Nc3ccccc3Cl)n2C)s1
[1]
  AC50: 20 µM [rising, single point]

## O=S(=O)(c1ccc(Cl)c(Cl)c1)c1snnc1-c1ccccc1
[1]
  AC50: 18.4 µM [falling, partial curve]

## Cc1ccc(S(=O)(=O)Nc2c(C)cc(C)nc2Cl)cc1
[1]
  AC50: 5.62 µM [rising, single point]

## O=C(CP(=O)(c1ccccc1)c1ccccc1)Nc1nc2ccccc2s1
[1]
  AC50: 35.5 µM [falling, single point]

## CCCN(CCC)S(=O)(=O)c1ccc(C(=O)O)cc1
[2]
  AC50: 20.6 µM [rising, partial curve, poor fit]

## Cc1cc(N(C)C)ccc1N=Nc1ccc2ncccc2c1
[1]
  AC50: 3.16 µM [rising, partial curve]
[2]
  AC50: 12.6 µM [falling, single point]

## Cc1ccc(C(=O)Nc2ccc3c(c2)OCO3)cc1S(=O)(=O)N1CCCCC1
[1]
  AC50: 8.2 µM [falling, partial curve, poor fit]

## CCC(NC(=O)c1ccccc1NC(=O)c1ccccc1)C(=O)NNC(=O)c1cccnc1 (centres undefined)
[1]
  AC50: 3.55 µM [rising, full curve]

## COc1ccccc1-n1c(CNC(=O)c2ccc(S(=O)(=O)N3CCOCC3)cc2)n[nH]c1=S
[1]
  AC50: 0.58 µM [falling, full curve]

## CCOc1ccc(/C=N/n2cc(-c3ccccc3)[nH]c2=S)cc1
[2]
  AC50: 4.47 µM [falling, single point]

## O=C(COc1ccc(F)cc1)Nc1nccs1
[1]
  AC50: 14.6 µM [falling, partial curve]

## COc1ccc2cc(CN(C(=O)Nc3ccccc3)C3CCCC3)c(=O)[nH]c2c1
[1]
  AC50: 7.08 µM [falling, full curve]
[2]
  AC50: 5.62 µM [rising, partial curve, poor fit]

## COC(=O)c1scc(C)c1NC(=O)c1ccccc1F
[1]
  AC50: 3.55 µM [rising, full curve, poor fit]

## N#Cc1c(-c2ccccc2)nc(SCC(=O)N(c2ccccc2)c2ccccc2)[nH]c1=O
[1]
  AC50: 29.1 µM [falling, single point]
[2]
  AC50: 14.6 µM [rising, partial curve, poor fit]

## CCOC(=O)c1nc(Nc2ccccc2C)c2ccccc2n1
[1]
  AC50: 11.2 µM [rising, partial curve, poor fit]

## Nc1nc(-c2ccccc2)c(-c2ccccc2)n1N
[1]
  AC50: 11.2 µM [falling, partial curve, poor fit]

## O=C(Nc1ccc(N2CCCC2)cc1)c1cccc(Cl)c1Cl
[1]
  AC50: 17.8 µM [falling, partial curve, poor fit]

## CCOc1ccccc1NC(=O)CSc1nc(=O)n(Cc2ccccn2)c2c1CCC2
[1]
  AC50: 2.06 µM [falling, full curve]

## Clc1ccc(C2=C3CCCCn4c(-c5ccccc5)c[n+](c43)C2)cc1
[1]
  AC50: 14.1 µM [falling, partial curve]

## COc1cccc2c3c(c(C)nc12)CCN3c1ccccc1
[1]
  AC50: 35.5 µM [falling, single point]

## Cc1ccc(NC(=O)CN(C)CC(=O)Nc2cccc(F)c2)cc1S(=O)(=O)N1CCCCCC1
[1]
  AC50: 11.2 µM [falling, partial curve, poor fit]

## Cc1c(CCC(=O)N[C@@H](CC(C)C)C(=O)O)c(=O)oc2cc3oc4c(c3cc12)CCCC4
[1]
  AC50: 0.1 µM [rising, full curve, poor fit]
[2]
  AC50: 7.08 µM [falling, full curve, poor fit]

## COc1ccc(CCN(C)C(=O)c2cc(-c3ccccc3)nc3ccccc23)cc1OC
[1]
  AC50: 35.5 µM [falling, single point]

## CCCNC(=O)c1c(N)n(-c2cccc(OC)c2)c2nc3ccccc3nc12
[1]
  AC50: 7.08 µM [falling, partial curve, poor fit]

## O=C(COc1cccc2c1CCN(Cc1ccc(Cl)cc1)C2=O)N1CCOCC1
[1]
  AC50: 10 µM [falling, partial curve, poor fit]

## Cc1ccc(S(=O)(=O)N2CCOCC2)cc1C(=O)N(C)CCOc1ccc(Cl)cc1
[1]
  AC50: 11.2 µM [falling, partial curve, poor fit]

## COc1cccc(Nc2nnc(Cc3cccnc3)c3ccccc23)c1
[1]
  AC50: 35.5 µM [falling, single point]

## Cn1c(=O)c(-c2ccccc2N)nc2ccccc21
[1]
  AC50: 3.66 µM [rising, partial curve, poor fit]

## Cc1ccc(S(=O)(=O)N2C=CC(C(F)(F)F)=NCC2)cc1
[1]
  AC50: 2.06 µM [falling, single point]

Source: PubChem BioAssay AID493014 (National Center for Advancing Translational Sciences (NCATS), 2011)
